Source: paper PMC11513070
Results are given in words; binding and its absence hold for the method and conditions named. Binding seen in cells or lysates may run through a third protein. Here binding means that the protein was enriched with, or labelled near, the bait; the list need not be complete.

Target: T1, SPPL2c (Signal peptide peptidase-like 2c), endogenous in murine testis (mouse (endogenous in testis)) (UniProt A2A6C4)
T1 sequence (chain, N-glycosylated at N106): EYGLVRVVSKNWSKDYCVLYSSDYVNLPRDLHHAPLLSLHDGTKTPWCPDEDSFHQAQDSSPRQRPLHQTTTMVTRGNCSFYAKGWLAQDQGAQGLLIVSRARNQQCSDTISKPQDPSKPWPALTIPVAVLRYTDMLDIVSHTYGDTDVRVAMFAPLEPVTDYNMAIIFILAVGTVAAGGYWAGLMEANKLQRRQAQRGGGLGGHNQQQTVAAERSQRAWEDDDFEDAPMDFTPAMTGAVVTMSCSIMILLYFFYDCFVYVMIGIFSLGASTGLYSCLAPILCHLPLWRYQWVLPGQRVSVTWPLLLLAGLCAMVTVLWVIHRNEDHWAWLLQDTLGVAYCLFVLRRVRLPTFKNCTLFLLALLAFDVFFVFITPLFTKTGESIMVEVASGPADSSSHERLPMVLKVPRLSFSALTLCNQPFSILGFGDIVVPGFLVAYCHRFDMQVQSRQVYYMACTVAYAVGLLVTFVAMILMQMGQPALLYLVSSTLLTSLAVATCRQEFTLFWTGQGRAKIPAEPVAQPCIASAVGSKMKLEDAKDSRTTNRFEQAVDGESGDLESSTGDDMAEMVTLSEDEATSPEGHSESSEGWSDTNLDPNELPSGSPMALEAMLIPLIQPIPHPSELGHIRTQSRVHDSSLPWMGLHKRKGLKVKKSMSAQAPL
Assay: affinity purification with mass spectrometry; SPPL2c precipitated with anti-SPPL2c sepharose beads from testis lysates (0.5% DDM) of wild type or SPPL2c-deficient mice; on-bead digest, nanoLC-MS/MS

binding: binds
B1: calnexin, endogenous in murine testis (protein, UniProt P35564 21-591)
chain: HDGHDDDAIDIEDDLDDVIEEVEDSKSKSDASTPPSPKVTYKAPVPTGEVYFADSFDRGSLSGWILSKAKKDDTDDEIAKYDGKWEVDEMKETKLPGDKGLVLMSRAKHHAISAKLNKPFLFDTKPLIVQYEVNFQNGIECGGAYVKLLSKTAELSLDQFHDKTPYTIMFGPDKCGEDYKLHFIFRHKNPKTGVYEEKHAKRPDADLKTYFTDKKTHLYTLILNPDNSFEILVDQSVVNSGNLLNDMTPPVNPSREIEDPEDRKPEDWDERPKIADPDAVKPDDWDEDAPSKIPDEEATKPEGWLDDEPEYIPDPDAEKPEDWDEDMDGEWEAPQIANPKCESAPGCGVWQRPMIDNPNYKGKWKPPMIDNPNYQGIWKPRKIPNPDFFEDLEPFKMTPFSAIGLELWSMTSDIFFDNFIISGDRRVVDDWANDGWGLKKAADGAAEPGVVLQMLEAAEERPWLWVVYILTVALPVFLVILFCCSGKKQSNAMEYKKTDAPQPDVKDEEGKEEEKNKRDEEEEEEKLEEKQKSDAEEDGVTGSQDEEDSKPKAEEDEILNRSPRNRKPRRE
